# Data taken from patent US20220073642A1, “METHODS OF USING SURUFATINIB IN TREATING ADVANCED PANCREATIC AND EXTRA-PANCREATIC NEUROENDOCRINE TUMORS” (HUTCHISON MEDIPHARMA LIMITED, priority 2020, published 2022).
# Test: SANET-ep Phase III study, safety and exposure (NCI CTCAE v4.03)
# Type: in vivo, human
# Conditions: N = 129
# Method: This study is a randomized, double-blind, placebo-controlled, multi-center Phase III study to assess the efficacy and safety of Surufatinib in treating advanced extra-pancreatic neuroendocrine tumors.
# Surufatinib, 300 mg, once daily (QD), orally
# Continuous administration (every 4 weeks as a treatment cycle).
smiles,measurement,value
"Cc1cc2cc(Oc3ccnc(Nc4cccc(CS(=O)(=O)NCCN(C)C)c4)n3)ccc2[nH]1 [Surufatinib, N-(2-(dimethylamino)ethyl)-1-(3-((4-((2-methyl-1H-indol-5-yl)oxy)pyrimidin-2-yl)amino)phenyl)-methanesulfonamide]",treatment discontinuation for disease progression,47.3%
